Assay results taken from patent US20240174758A1 (AstraZeneca / MedImmune, published 2024).
No constants are given. Whether binding was seen depends on the method and setting.

What was measured:
[1] = target: CCR5; experiment: cell binding by the methods of Example 4
[2] = target: CXCR1; experiment: cell binding by the methods of Example 4
[3] = target: CCR8; experiment: cell binding by the methods of Example 4
[4] = target: CXCR2; experiment: cell binding by the methods of Example 4
[5] = target: CXCR1; experiment: binding to cells expressing CXCR1, FL1 counts against Log M
[6] = target: CXCR2; experiment: binding to cells expressing CXCR2, FL1 counts against Log M
[7] = target: CCR8; experiment: binding to cells expressing CCR8, FL1 counts against Log M
[8] = target: CCR5; experiment: binding to cells expressing CCR5, FL1 counts against Log M

Binder	binding [1]	binding [2]	binding [3]	binding [4]	binding [5]	binding [6]	binding [7]	binding [8]
Humanised AB1020243 (AB1020243-fgl) (antibody, V domains shown, For LigandTracer it was labelled with DyLight 650 on an engineered cysteine in CH2; also called humanised AB1020243 afuc) VH: QVQLVQSGAEVKKPGASVKVSCKASGYTFTSYWMHWVRQAPGQGLEWIGVIYPGNSDTRYNQKFKGRVTITRDTSASTAYMELSSLRSEDTAVYYCTRDYYSNYVYYYAMDYWGQGTTVTVSS VL: DIVMTQTPLSLPVTPGEPASISCRSSQSLVHSNGNTYLHWYLQKPGQSPQLLIYKVSNRFSGVPDRFSGSGSGTDFTLKISRVEAEDVGVYYCSQSTHVPWTFGQGTKLEIK	no binding	no binding	no binding	no binding	no binding (tested: Log M about -6.5 (about 3e-7 M))	no binding (tested: Log M about -6.5 (about 3e-7 M))	no binding (tested: Log M about -6.5 (about 3e-7 M))	no binding (tested: Log M about -6.5 (about 3e-7 M))
AB243LO0326 (antibody, V domains shown, CDR-optimised humanised antibody, a-fuc huIgG1 (afucosylated in all experiments); For LigandTracer it was labelled with DyLight 650 on an engineered cysteine in CH2; also called CDR-optimised AB1020243) VH: QVQLVQSGAEVKKPGASVKVSCKASGYTFTSYWMHWVRQAPGQGLEWIGVIYPGNSDTRYNQKFKGRVTITRDTSASTAYMELSSLRSEDTAVYYCTRDYYSNYVYYYAMDYWGQGTTVTVSS VL: DIVMTQTPLSLPVTPGEPASISCRSSQSLVHPNRNTYLHWYLQKPGQSPQLLIYKVSNRFSGVPDRFSGSGSGTDFTLKISRVEAEDVGVYYCSQSTHVPWTFGQGTKLEIK	no binding	no binding	no binding	no binding	no binding (tested: Log M about -6.8 (about 2e-7 M))	no binding (tested: Log M about -6.8 (about 2e-7 M))	no binding (tested: Log M about -6.8 (about 2e-7 M))	no binding (tested: Log M about -6.8 (about 2e-7 M))
